# Assay results

From PubChem BioAssay record AID504749 (NCATS, 2011).

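A panel of P. falciparum strains inside erythrocytes is exposed to compounds for three days, then a DNA-binding dye reports the amount of parasite DNA.
Each compound was titrated across a series from about 0.000037 to 29 µM.
The number is the fitted AC50, the concentration giving a half-maximal change in signal; a lower value means higher potency, whether the curve shows a decrease or an increase.
Calls follow the curve class and fit quality: every row here is inconclusive, covering signal-raising curves and weak, poorly fitted, partial or highest-dose-only inhibition curves.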

Values are in µM.
Every entry below has the call inconclusive.
Only part of the assay is shown, chiefly results filed as inconclusive.
Potencies fitted to partial, single-point or poorly fitting curves are rough.

* C=Cc1c(C)/c2[n-]/c1=C\c1[n-]c(c(CC)c1C)/C=c1\[n-]c3c(c1C)C(=O)C(C(=O)[O-])C=3c1[n-]c(c(C)c1CCC(=O)[O-])\C=2.[Cu].[Na+].[Na+] (stereo not drawn) [Dd2] : Potency 11.22 µM (inhibitor, single point)
* C=Cc1c(C)/c2[n-]/c1=C\c1[n-]c(c(CC)c1C)/C=c1\[n-]c3c(c1C)C(=O)C(C(=O)[O-])C=3c1[n-]c(c(C)c1CCC(=O)[O-])\C=2.[Cu].[Na+].[Na+] (stereo not drawn) [CP215] : Potency 7.569 µM (inhibitor, partial curve)
* C=Cc1c(C)/c2[n-]/c1=C\c1[n-]c(c(CC)c1C)/C=c1\[n-]c3c(c1C)C(=O)C(C(=O)[O-])C=3c1[n-]c(c(C)c1CCC(=O)[O-])\C=2.[Cu].[Na+].[Na+] (stereo not drawn) [CP260] : Potency 15.85 µM (inhibitor, single point)
* C=Cc1c(C)/c2[n-]/c1=C\c1[n-]c(c(CC)c1C)/C=c1\[n-]c3c(c1C)C(=O)C(C(=O)[O-])C=3c1[n-]c(c(C)c1CCC(=O)[O-])\C=2.[Cu].[Na+].[Na+] (stereo not drawn) [ATS95] : Potency 11.22 µM (inhibitor, single point)
* C=Cc1c(C)/c2[n-]/c1=C\c1[n-]c(c(CC)c1C)/C=c1\[n-]c3c(c1C)C(=O)C(C(=O)[O-])C=3c1[n-]c(c(C)c1CCC(=O)[O-])\C=2.[Cu].[Na+].[Na+] (stereo not drawn) [TAB113] : Potency 10 µM (inhibitor, single point)
* C=Cc1c(C)/c2[n-]/c1=C\c1[n-]c(c(CC)c1C)/C=c1\[n-]c3c(c1C)C(=O)C(C(=O)[O-])C=3c1[n-]c(c(C)c1CCC(=O)[O-])\C=2.[Cu].[Na+].[Na+] (stereo not drawn) [DIV17] : Potency 19.01 µM (inhibitor, single point)
* C=Cc1c(C)/c2[n-]/c1=C\c1[n-]c(c(CC)c1C)/C=c1\[n-]c3c(c1C)C(=O)C(C(=O)[O-])C=3c1[n-]c(c(C)c1CCC(=O)[O-])\C=2.[Cu].[Na+].[Na+] (stereo not drawn) [CP335] : Potency 12 µM (inhibitor, single point)
* C=Cc1c(C)/c2[n-]/c1=C\c1[n-]c(c(CC)c1C)/C=c1\[n-]c3c(c1C)C(=O)C(C(=O)[O-])C=3c1[n-]c(c(C)c1CCC(=O)[O-])\C=2.[Cu].[Na+].[Na+] (stereo not drawn) [ECU] : Potency 12.59 µM (inhibitor, single point)
* C=Cc1c(C)/c2[n-]/c1=C\c1[n-]c(c(CC)c1C)/C=c1\[n-]c3c(c1C)C(=O)C(C(=O)[O-])C=3c1[n-]c(c(C)c1CCC(=O)[O-])\C=2.[Cu].[Na+].[Na+] (stereo not drawn) [N140] : Potency 11.22 µM (inhibitor, partial curve)
* C=Cc1c(C)/c2[n-]/c1=C\c1[n-]c(c(CC)c1C)/C=c1\[n-]c3c(c1C)C(=O)C(C(=O)[O-])C=3c1[n-]c(c(C)c1CCC(=O)[O-])\C=2.[Cu].[Na+].[Na+] (stereo not drawn) [CP191] : Potency 17.78 µM (inhibitor, single point)
* C=Cc1c(C)/c2[n-]/c1=C\c1[n-]c(c(CC)c1C)/C=c1\[n-]c3c(c1C)C(=O)C(C(=O)[O-])C=3c1[n-]c(c(C)c1CCC(=O)[O-])\C=2.[Cu].[Na+].[Na+] (stereo not drawn) [P93_24] : Potency 8.912 µM (inhibitor, partial curve)
* C=Cc1c(C)/c2[n-]/c1=C\c1[n-]c(c(CC)c1C)/C=c1\[n-]c3c(c1C)C(=O)C(C(=O)[O-])C=3c1[n-]c(c(C)c1CCC(=O)[O-])\C=2.[Cu].[Na+].[Na+] (stereo not drawn) [CP250] : Potency 10 µM (inhibitor, single point)
* C=Cc1c(C)/c2[n-]/c1=C\c1[n-]c(c(CC)c1C)/C=c1\[n-]c3c(c1C)C(=O)C(C(=O)[O-])C=3c1[n-]c(c(C)c1CCC(=O)[O-])\C=2.[Cu].[Na+].[Na+] (stereo not drawn) [CP297] : Potency 19.01 µM (inhibitor, single point)
* C=Cc1c(C)/c2[n-]/c1=C\c1[n-]c(c(CC)c1C)/C=c1\[n-]c3c(c1C)C(=O)C(C(=O)[O-])C=3c1[n-]c(c(C)c1CCC(=O)[O-])\C=2.[Cu].[Na+].[Na+] (stereo not drawn) [AS120] : Potency 11.22 µM (inhibitor, single point)
* C=Cc1c(C)/c2[n-]/c1=C\c1[n-]c(c(CC)c1C)/C=c1\[n-]c3c(c1C)C(=O)C(C(=O)[O-])C=3c1[n-]c(c(C)c1CCC(=O)[O-])\C=2.[Cu].[Na+].[Na+] (stereo not drawn) [CP217] : Potency 11.22 µM (inhibitor, single point)
* C=Cc1c(C)/c2[n-]/c1=C\c1[n-]c(c(CC)c1C)/C=c1\[n-]c3c(c1C)C(=O)C(C(=O)[O-])C=3c1[n-]c(c(C)c1CCC(=O)[O-])\C=2.[Cu].[Na+].[Na+] (stereo not drawn) [parasite line B] : Potency 11.22 µM (inhibitor, single point)
* C=Cc1c(C)/c2[n-]/c1=C\c1[n-]c(c(CC)c1C)/C=c1\[n-]c3c(c1C)C(=O)C(C(=O)[O-])C=3c1[n-]c(c(C)c1CCC(=O)[O-])\C=2.[Cu].[Na+].[Na+] (stereo not drawn) [CP252] : Potency 11.22 µM (inhibitor, single point)
* C=Cc1c(C)/c2[n-]/c1=C\c1[n-]c(c(CC)c1C)/C=c1\[n-]c3c(c1C)C(=O)C(C(=O)[O-])C=3c1[n-]c(c(C)c1CCC(=O)[O-])\C=2.[Cu].[Na+].[Na+] (stereo not drawn) [ICS] : Potency 11.22 µM (inhibitor, single point)
* C=Cc1c(C)/c2[n-]/c1=C\c1[n-]c(c(CC)c1C)/C=c1\[n-]c3c(c1C)C(=O)C(C(=O)[O-])C=3c1[n-]c(c(C)c1CCC(=O)[O-])\C=2.[Cu].[Na+].[Na+] (stereo not drawn) [CP237] : Potency 17.78 µM (inhibitor, single point)
* C=Cc1c(C)/c2[n-]/c1=C\c1[n-]c(c(CC)c1C)/C=c1\[n-]c3c(c1C)C(=O)C(C(=O)[O-])C=3c1[n-]c(c(C)c1CCC(=O)[O-])\C=2.[Cu].[Na+].[Na+] (stereo not drawn) [CP203] : Potency 13.46 µM (inhibitor, single point)
* C=Cc1c(C)/c2[n-]/c1=C\c1[n-]c(c(CC)c1C)/C=c1\[n-]c3c(c1C)C(=O)C(C(=O)[O-])C=3c1[n-]c(c(C)c1CCC(=O)[O-])\C=2.[Cu].[Na+].[Na+] (stereo not drawn) [CP194] : Potency 13.46 µM (inhibitor, single point)
* C=Cc1c(C)/c2[n-]/c1=C\c1[n-]c(c(CC)c1C)/C=c1\[n-]c3c(c1C)C(=O)C(C(=O)[O-])C=3c1[n-]c(c(C)c1CCC(=O)[O-])\C=2.[Cu].[Na+].[Na+] (stereo not drawn) [TAB109] : Potency 8.912 µM (inhibitor, single point)

Once more, the final 2:

{"compound": "C=Cc1c(C)/c2[n-]/c1=C\\c1[n-]c(c(CC)c1C)/C=c1\\[n-]c3c(c1C)C(=O)C(C(=O)[O-])C=3c1[n-]c(c(C)c1CCC(=O)[O-])\\C=2.[Cu].[Na+].[Na+]", "stereo": "stereo not drawn", "condition": "CP194", "Potency (µM)": "13.46", "remark": "inhibitor, single point"}
{"compound": "C=Cc1c(C)/c2[n-]/c1=C\\c1[n-]c(c(CC)c1C)/C=c1\\[n-]c3c(c1C)C(=O)C(C(=O)[O-])C=3c1[n-]c(c(C)c1CCC(=O)[O-])\\C=2.[Cu].[Na+].[Na+]", "stereo": "stereo not drawn", "condition": "TAB109", "Potency (µM)": "8.912", "remark": "inhibitor, single point"}